Laboratory results published in US20100317600 (published 2010).
One purity is given for all peptides; the source may state it once.

Assay: general procedure: hybrid (solid and solution phase) peptide synthesis; polystyrene functionalized as aminomethyl or benzhydrylamino compound with 4-(4-hydroxymethyl-3-methoxyphenoxy)butyric a; TBTU, 1-hydroxybenzotriazole, diisopropylethylamine (fragment condensation)
Conditions: purification step, analytical HPLC; capillary electrophoresis; MS, TFA salt converted to acetate

Row | Substance | final HPLC purity
1 | ANP(99-126) | more than 90%
2 | ANP(102-126) | more than 90%
